Results are given in words; binding and its absence hold for the method and conditions named. Sequences can lack the tags named with a protein.
Biological target: T1, amino-terminal domain of CHC2 (clathrin heavy chain 2), GAL4 BD fusion (Arabidopsis thaliana) (UniProt Q0WLB5)
T1 sequence: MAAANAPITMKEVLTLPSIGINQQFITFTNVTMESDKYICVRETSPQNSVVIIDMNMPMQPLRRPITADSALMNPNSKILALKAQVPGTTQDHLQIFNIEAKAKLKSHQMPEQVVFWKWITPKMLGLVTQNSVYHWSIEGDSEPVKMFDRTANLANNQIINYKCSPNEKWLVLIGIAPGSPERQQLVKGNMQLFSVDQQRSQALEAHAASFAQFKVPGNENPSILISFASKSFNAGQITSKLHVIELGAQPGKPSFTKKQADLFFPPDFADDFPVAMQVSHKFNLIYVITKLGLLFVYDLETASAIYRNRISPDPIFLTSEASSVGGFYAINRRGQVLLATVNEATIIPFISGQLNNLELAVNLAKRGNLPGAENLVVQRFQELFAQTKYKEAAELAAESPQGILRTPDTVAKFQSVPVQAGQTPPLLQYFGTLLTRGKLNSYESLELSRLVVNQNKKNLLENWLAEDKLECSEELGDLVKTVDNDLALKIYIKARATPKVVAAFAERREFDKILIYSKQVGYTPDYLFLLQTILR
Test: two-hybrid; GAL4 AD fusions of AP large subunits against GAL4 BD-CHC2 NTD in S. cerevisiae AH109; growth on medium lacking Leu, Trp, His and adenine, 4 days at 30 °C; five independent colonies

binding: no binding
B1: AP4E (epsilon subunit of AP-4), GAL4 AD fusion (protein, UniProt Q8L7A9 1-938)
chain: MEQLKTIGRELAMGSQGGFGQSKEFLDLVKSIGEARSKAEEDRIVLSEVDILKRRLLEPDIPKRKMKEYIIRLVYIEMLGHDASFGYIYAVKMTHDDNLLLKRTGYLAVTLFLNEDHDLIILIVNTIQKDLRSDNYLVVCAALNAICRLINEETIPAVLPQVVELLNHQKEAVRKKAIMALHRFHRKSPSSVSHLVSNFRKRLCDNDPGVMGATLCPLFDLISEDVNSYKDLVSSFVSILKQVTERRLPKSYDYHQMPAPFIQIKLLKIMALLGSGDKNASDIMSMVLGDLFRKCDSSTNIGNAILYECIRCISCILPNPKLLEAAADAISKFLKSDSHNLKYMGIDGLGRLIKISPDIAEQHQLAVIDCLEDPDDTLKRKTFELLYKMTKSSNVEVIVDRMIDYMISINDNHYKTEIASRCVELAEQFAPSNQWFIQIMNKVFEHAGDLVNIKVAHNLMRLIAEGFGEDDDDADSKLRLSAVESYLQLISEPKLPSLFLQVISWVLGEYGTADGKYSASYISGKLCDVADAYSSDETVKGYAVSALMKIYAFEIASGRKVDVLPECQSLIEELLASHSTDLQQRAYELQALLALDARAVETILPLDASCEDIEVDKDLSFLNGYIQQAIESGAQPYISERERSGMFETTDYHPQDHHEVPTHALRFEAYELPKPSVPPQASNELVPVPEPSYYSESHQPISTSLVSERESSEIKLRLDGVKQKWGRPSYQSTTAASSTTPQAANGISTHSDAGVGSSSSKPRSSYEPKKPEIDPEKQRLAASLFGGSSSRTDKRSSSGGHKPAKGTANKTATVPKENQTPVQPPPDLLDFGEPTATTATAMDPFKELEGLMDSSSQDGGSSDVMGLYSDAAPVTTTTSVDSLLSELSDSSKGNSRTYQPQTSKGPNTKEALEKDALVRQMGVNPTSQNPTLFKDLLG
